Measured values from the supplement of paper PMC10849652.
Some of the results follow.

By UniProt entry, the sequences of proteins in these tests, tags left out. Where a name states a change or a piece, a line headed by the entry shows the natural chain unless it says otherwise.
UniProt Q9P0L0: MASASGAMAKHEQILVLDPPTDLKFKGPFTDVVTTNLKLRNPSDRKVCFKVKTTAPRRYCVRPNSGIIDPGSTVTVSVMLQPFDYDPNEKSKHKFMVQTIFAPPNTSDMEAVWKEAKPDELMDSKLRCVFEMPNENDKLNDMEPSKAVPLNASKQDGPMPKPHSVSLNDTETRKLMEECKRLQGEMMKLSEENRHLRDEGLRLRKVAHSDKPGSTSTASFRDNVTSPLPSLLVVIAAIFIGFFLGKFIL
UniProt O95292, whole entry, looked up: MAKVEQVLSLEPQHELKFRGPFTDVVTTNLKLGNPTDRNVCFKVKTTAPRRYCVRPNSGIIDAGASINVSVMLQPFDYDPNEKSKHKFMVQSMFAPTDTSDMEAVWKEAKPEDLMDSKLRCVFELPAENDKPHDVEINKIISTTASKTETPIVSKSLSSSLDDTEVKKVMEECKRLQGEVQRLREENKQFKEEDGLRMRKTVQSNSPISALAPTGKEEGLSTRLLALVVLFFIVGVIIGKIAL
UniProt O75385: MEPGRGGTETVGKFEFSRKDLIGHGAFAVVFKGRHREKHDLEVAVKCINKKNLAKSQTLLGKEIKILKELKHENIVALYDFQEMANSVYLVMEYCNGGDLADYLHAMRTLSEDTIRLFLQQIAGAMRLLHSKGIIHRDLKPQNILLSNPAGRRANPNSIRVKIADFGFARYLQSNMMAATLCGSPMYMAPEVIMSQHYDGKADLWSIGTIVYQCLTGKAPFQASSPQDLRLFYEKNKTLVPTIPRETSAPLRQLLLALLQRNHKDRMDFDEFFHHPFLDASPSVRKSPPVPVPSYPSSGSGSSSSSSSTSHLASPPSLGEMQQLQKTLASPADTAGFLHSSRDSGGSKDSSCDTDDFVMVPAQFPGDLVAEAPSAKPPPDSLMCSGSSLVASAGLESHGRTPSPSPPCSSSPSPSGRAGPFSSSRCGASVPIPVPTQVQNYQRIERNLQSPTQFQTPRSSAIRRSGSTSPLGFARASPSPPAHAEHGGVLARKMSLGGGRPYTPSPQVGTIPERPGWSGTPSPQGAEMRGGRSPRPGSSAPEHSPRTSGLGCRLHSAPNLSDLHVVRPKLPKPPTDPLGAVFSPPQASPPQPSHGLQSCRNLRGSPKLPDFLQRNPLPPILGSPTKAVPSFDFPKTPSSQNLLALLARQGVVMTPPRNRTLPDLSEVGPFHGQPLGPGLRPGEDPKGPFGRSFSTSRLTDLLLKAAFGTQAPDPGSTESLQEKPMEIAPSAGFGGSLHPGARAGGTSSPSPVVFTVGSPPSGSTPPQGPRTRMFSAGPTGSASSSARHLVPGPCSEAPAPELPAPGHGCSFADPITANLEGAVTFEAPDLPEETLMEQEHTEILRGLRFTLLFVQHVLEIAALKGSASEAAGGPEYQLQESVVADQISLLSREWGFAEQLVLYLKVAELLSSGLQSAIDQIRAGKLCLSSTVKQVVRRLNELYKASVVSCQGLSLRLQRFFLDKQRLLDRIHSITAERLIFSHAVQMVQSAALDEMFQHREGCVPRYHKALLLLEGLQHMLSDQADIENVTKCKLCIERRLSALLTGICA
UniProt Q9ULK5: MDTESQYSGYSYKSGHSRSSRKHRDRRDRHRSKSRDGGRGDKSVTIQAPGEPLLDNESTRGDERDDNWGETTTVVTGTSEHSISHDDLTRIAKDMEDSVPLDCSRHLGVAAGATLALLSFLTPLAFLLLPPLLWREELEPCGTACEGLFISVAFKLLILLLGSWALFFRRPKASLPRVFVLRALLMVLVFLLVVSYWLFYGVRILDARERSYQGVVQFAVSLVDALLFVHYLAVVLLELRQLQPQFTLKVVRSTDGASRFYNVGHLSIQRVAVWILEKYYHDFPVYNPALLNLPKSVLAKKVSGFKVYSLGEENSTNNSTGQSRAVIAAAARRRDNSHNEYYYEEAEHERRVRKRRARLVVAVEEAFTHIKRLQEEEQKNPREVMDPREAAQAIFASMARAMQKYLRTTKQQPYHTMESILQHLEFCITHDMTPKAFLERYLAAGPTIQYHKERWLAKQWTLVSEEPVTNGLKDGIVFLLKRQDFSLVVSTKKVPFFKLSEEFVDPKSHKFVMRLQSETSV
UniProt Q9BRU9: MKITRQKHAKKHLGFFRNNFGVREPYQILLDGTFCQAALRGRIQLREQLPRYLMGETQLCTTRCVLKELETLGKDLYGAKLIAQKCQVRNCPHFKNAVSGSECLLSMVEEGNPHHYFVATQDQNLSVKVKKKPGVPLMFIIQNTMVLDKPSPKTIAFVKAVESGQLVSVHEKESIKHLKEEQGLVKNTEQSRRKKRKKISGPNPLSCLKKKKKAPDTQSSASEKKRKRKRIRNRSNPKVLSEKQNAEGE
UniProt Q6UW78: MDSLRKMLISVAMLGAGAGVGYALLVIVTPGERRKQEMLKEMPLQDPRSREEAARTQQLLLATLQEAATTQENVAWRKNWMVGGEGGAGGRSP
UniProt P46939: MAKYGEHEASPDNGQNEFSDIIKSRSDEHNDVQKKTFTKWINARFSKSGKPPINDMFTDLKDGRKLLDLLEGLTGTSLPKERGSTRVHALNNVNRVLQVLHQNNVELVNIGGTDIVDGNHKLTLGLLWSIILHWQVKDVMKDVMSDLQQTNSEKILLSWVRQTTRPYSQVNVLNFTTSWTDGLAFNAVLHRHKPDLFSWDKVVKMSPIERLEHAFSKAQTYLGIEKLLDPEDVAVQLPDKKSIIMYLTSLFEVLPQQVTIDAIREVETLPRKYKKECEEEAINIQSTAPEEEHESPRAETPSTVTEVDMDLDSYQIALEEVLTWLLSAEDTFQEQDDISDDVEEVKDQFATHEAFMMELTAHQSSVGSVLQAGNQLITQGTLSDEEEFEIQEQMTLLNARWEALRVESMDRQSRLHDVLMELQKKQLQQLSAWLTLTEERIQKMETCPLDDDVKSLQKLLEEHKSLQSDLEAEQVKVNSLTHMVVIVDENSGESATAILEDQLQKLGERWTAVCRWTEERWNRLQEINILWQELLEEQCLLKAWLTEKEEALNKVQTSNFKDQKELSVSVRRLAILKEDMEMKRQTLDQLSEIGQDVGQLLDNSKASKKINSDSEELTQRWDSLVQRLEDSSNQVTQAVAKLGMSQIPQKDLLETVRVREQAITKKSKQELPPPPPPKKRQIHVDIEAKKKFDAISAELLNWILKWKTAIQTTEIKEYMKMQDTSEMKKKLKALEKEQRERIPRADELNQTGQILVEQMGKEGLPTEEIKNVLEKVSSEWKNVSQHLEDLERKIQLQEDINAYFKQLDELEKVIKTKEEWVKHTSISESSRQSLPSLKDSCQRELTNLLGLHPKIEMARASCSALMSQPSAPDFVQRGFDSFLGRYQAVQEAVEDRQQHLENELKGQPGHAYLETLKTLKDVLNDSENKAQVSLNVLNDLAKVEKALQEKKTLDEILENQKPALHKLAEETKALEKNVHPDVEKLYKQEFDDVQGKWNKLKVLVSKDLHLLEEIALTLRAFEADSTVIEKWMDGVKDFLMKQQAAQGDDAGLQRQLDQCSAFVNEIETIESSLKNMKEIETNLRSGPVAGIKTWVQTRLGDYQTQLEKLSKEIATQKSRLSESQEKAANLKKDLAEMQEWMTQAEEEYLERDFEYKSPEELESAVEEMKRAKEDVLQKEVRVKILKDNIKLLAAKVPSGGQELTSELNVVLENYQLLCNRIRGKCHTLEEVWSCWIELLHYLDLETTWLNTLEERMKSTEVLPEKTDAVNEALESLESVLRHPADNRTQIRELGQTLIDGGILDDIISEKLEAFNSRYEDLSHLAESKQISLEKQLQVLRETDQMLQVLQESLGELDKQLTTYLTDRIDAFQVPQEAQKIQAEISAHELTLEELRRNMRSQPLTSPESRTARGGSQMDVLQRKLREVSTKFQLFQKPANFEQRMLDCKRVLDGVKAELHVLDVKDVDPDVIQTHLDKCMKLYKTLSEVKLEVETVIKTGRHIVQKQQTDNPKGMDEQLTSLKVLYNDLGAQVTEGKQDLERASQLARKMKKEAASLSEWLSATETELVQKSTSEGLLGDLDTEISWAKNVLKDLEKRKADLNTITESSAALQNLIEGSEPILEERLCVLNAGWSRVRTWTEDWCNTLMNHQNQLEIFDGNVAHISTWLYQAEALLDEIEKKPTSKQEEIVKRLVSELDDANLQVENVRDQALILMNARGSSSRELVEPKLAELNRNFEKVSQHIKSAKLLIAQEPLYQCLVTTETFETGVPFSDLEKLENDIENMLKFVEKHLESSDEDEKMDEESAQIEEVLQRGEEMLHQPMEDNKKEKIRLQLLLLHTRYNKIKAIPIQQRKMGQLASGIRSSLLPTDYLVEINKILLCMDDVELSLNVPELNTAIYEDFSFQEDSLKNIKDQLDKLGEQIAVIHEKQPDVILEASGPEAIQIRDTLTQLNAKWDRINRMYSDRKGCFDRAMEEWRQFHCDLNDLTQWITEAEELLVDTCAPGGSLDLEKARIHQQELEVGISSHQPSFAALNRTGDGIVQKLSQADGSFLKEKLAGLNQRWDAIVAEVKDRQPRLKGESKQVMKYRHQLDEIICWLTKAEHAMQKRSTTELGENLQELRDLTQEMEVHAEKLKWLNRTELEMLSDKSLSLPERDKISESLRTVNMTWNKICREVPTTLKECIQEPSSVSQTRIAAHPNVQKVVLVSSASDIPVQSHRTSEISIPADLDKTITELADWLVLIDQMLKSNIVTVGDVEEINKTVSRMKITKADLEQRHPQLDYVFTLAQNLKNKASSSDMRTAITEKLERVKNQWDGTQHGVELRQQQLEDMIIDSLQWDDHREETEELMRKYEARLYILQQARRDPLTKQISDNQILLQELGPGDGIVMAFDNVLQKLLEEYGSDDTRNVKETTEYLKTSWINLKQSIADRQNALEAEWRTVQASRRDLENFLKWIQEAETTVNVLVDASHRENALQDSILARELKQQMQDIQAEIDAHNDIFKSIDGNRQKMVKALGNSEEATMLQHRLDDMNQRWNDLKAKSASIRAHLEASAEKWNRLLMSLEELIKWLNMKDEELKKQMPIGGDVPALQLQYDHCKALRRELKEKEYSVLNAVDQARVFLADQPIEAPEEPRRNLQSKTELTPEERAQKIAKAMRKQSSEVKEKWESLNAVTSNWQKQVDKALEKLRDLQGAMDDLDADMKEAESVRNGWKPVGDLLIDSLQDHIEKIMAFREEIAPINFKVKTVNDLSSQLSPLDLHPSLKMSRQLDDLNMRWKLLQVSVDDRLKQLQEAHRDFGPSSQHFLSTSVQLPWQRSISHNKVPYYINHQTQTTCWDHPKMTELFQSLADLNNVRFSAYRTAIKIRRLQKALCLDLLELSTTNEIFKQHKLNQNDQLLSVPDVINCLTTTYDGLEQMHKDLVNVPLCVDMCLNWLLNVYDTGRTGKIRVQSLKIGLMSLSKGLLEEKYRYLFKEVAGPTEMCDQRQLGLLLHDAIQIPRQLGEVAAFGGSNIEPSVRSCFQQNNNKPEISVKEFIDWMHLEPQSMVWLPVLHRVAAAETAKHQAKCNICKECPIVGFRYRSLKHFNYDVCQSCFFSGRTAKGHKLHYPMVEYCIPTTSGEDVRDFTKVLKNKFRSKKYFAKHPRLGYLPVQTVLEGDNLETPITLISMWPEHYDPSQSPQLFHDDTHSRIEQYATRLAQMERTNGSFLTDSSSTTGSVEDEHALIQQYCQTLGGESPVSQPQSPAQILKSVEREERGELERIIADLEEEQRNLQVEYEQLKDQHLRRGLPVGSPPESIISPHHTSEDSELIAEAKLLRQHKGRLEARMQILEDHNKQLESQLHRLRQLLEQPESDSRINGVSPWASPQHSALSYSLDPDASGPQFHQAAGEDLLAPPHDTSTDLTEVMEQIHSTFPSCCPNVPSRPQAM
UniProt A6NNY8: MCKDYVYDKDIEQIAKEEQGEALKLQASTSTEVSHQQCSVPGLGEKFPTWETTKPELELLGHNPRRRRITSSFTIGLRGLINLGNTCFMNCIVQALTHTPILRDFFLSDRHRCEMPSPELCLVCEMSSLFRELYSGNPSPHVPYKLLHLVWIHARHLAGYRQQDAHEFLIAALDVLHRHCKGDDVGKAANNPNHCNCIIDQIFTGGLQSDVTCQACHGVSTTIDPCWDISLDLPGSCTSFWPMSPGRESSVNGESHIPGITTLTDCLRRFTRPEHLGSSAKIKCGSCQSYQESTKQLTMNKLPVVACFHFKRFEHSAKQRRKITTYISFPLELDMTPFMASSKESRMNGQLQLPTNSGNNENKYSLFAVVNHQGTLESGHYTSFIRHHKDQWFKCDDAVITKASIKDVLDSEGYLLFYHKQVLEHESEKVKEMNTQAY
UniProt P13051, whole entry, looked up: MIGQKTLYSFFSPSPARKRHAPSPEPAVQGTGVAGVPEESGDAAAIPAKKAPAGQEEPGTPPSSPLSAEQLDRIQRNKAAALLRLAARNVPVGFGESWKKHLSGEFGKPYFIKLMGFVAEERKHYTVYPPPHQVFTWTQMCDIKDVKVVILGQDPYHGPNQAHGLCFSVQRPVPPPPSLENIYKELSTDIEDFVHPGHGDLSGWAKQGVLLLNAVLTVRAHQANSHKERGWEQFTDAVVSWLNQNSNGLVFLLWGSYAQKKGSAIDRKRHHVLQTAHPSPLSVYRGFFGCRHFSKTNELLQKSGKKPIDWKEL

What was measured:
Test in all cases: log2 fold change, soluble protein after heating vs DMSO (PISA); higher = thermal stabilisation; K562 lysate, 10 uM; active = over 0.2 and 3.5 SD of the protein, either way, in both replicates (recomputed)
nilotinib = compound: Cc1cn(-c2cc(NC(=O)c3ccc(C)c(Nc4nccc(-c5cccnc5)n4)c3)cc(C(F)(F)F)c2)cn1 [nilotinib]
How it was run: (§1)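 Thermal stability, expressed as log-two fold change relative to solvent controls, is given from duplicates. Crude K562 extract in PBS pH 7.4 with 1 mM MgCl2, at 1 mg/mL protein, was treated with 10 μM compound for 30 min and heated in aliquots for 3 min across 48°C-58°C. After pooling, adjustment to 0.5% NP-40 at 4°C and centrifugation at 21,000xg for 90 min, supernatant protein was measured by TMTpro 16plex LC-MS/MS with channel sums equalised.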

[1] = compound: Cc1nc(Nc2n[nH]c3c2CN(C(=O)N[C@H](CN(C)C)c2ccccc2)C3(C)C)c2sccc2n1
How it was run: as §1

[2] = compound: Cc1ncc(-c2ccnc(Nc3ccc(S(C)(=O)=O)cc3)n2)n1C(C)C
How it was run: as §1

quisinostat = compound: Cn1cc(CNCC2CCN(c3ncc(C(=O)NO)cn3)CC2)c2ccccc21 [quisinostat]
How it was run: as §1

tipifarnib = compound: Cn1cncc1[C@@](N)(c1ccc(Cl)cc1)c1ccc2c(c1)c(-c1cccc(Cl)c1)cc(=O)n2C [tipifarnib]
How it was run: as §1

[3] = compound: NC(=O)Nc1cc(-c2cccc(F)c2)sc1C(=O)N[C@H]1CCCNC1
How it was run: as §1

[4] = compound: NC(=O)c1cnc(N[C@@H]2CCCC[C@@H]2N)nc1Nc1cccc(-n2nccn2)c1
How it was run: as §1

[5] = compound: NC1(c2ccc(-c3nc4ccn5c(=O)[nH]nc5c4cc3-c3ccccc3)cc2)CCC1
How it was run: as §1

dasatinib = compound: Cc1nc(Nc2ncc(C(=O)Nc3c(C)cccc3Cl)s2)cc(N2CCN(CCO)CC2)n1 [dasatinib]
How it was run: as §1

[6] = compound: Cn1cc(-c2ccc3c(c2)CCN3C(=O)Cc2cccc(C(F)(F)F)c2)c2c(N)ncnc21
How it was run: as §1

Measured: log2 fold change

USP12 (UniProt O75317)
inactive: nilotinib 0.204 | [1] 0.072 | [2] 0.076 | quisinostat -0.199 | tipifarnib -0.077 | [3] -0.002 | [4] -0.146 | [5] 0.087

VAPA (UniProt Q9P0L0)
inactive: nilotinib -0.017 | [1] -0.008 | dasatinib 0.031 | [2] 0.003 | [6] 0.08 | quisinostat 0.201 | tipifarnib 0.033 | [3] -0.065 | [4] 0.008 | [5] 0.081

VAPB (UniProt O95292)
inactive: nilotinib 0.027 | [1] 0.025 | dasatinib 0.06 | [2] 0.007 | [6] 0.05 | quisinostat 0.023 | tipifarnib -0.014 | [3] -0.021 | [4] -0.017 | [5] -0.023

UIMC1 (UniProt Q96RL1)
inactive: nilotinib -0.004 | [1] -0.021 | dasatinib -0.002 | [2] -0.072 | [6] -0.022 | quisinostat 0.012 | tipifarnib 0.071 | [3] -0.012 | [4] -0.017 | [5] 0.002

VAV1 (UniProt P15498)
inactive: nilotinib 0.022 | [1] -0.031 | dasatinib 0.007 | [2] 0.009 | [6] 0.04 | quisinostat 0.022 | tipifarnib 0 | [3] -0.018 | [4] 0.007 | [5] -0.054

UQCR10 (UniProt Q9UDW1)
inactive: nilotinib 0.015 | [1] 0.001 | dasatinib 0.05 | [2] 0.022 | [6] -0.096 | quisinostat -0.001 | tipifarnib 0.038 | [3] -0.006 | [4] -0.066 | [5] -0.013

UCP2 (UniProt P55851)
inactive: nilotinib 0.144 | [1] -0.186 | [2] -0.137 | quisinostat -0.022 | tipifarnib 0.142 | [3] 0.059

USP22 (UniProt Q9UPT9)
inactive: nilotinib -0.032 | [1] 0.002 | dasatinib 0.022 | [2] 0.037 | [6] 0.028 | quisinostat -0.065 | tipifarnib -0.028 | [3] 0.004 | [5] -0.012

UNC119 (UniProt Q13432)
inactive: nilotinib 0.02 | [1] 0.01 | dasatinib -0.171 | [2] 0.016 | [6] -0.033 | quisinostat -0.056 | tipifarnib 0.061 | [3] 0.137 | [5] -0.074

ULK3 isoform 4 (UniProt Q6PHR2)
inactive: dasatinib 0.035 | [6] -0.181 | quisinostat -0.11 | [3] 0.296 | [4] 0.133 | [5] -0.157

USP30 (UniProt Q70CQ3)
inactive: dasatinib 0.145 | [6] -0.226 | quisinostat 0.036 | [3] 0.215 | [5] -0.005

UPF3A (UniProt Q9H1J1)
inactive: quisinostat -0.053 | [3] -0.024 | [4] 0.002 | [5] 0.071

ULK1 (UniProt O75385)
inactive: dasatinib -0.046 | [6] 0.059 | quisinostat 0.183 | [3] 0.22 | [4] 0.008 | [5] 0

USP37 (UniProt Q86T82)
inactive: quisinostat 0.049 | [3] 0.159

ULBP2 (UniProt Q9BZM5)
inactive: dasatinib 0.058 | [6] -0.115 | quisinostat 0.006 | [3] -0.004 | [4] -0.018 | [5] -0.055

VIL1 (UniProt P09327)
inactive: dasatinib 0.126 | [6] -0.085 | quisinostat 0.046 | [3] 0.044 | [4] -0.013 | [5] 0.012

VASN (UniProt Q6EMK4)
inactive: dasatinib 0.081 | [6] 0.027 | [5] -0.059

UROD (UniProt H0Y5R6)
inactive: [4] 0.126

USP5 (UniProt F5H571)
inactive: nilotinib -0.076 | [1] 0.071 | [2] 0.495 | tipifarnib 0.133 | [4] 0.123

UNC13A (UniProt Q9UPW8)
inactive: nilotinib 0.114 | [1] 0.046 | [2] 0.165 | tipifarnib 0.064 | [5] -0.048

VEZT (UniProt F8W8C2)
inactive: quisinostat 0.091 | [3] 0.034 | [4] -0.12 | [5] 0.065

UQCRB (UniProt E5RHG9)
inactive: dasatinib 0.028 | [6] 0.102

USP46 (UniProt P62068)
inactive: quisinostat -0.173 | [3] 0.1 | [4] 0.061

VAV2 (UniProt P52735)
inactive: dasatinib -0.171 | [6] -0.133 | [4] 0.11

VEGFA isoform 14 (UniProt P15692)
inactive: quisinostat 0.105 | [3] 0.014

UXS1 isoform 2 (UniProt Q8NBZ7)
inactive: dasatinib -0.063 | [6] 0.098 | quisinostat 0.045 | [3] -0.009 | [4] -0.041 | [5] -0.039

VANGL2 (UniProt Q9ULK5)
inactive: dasatinib -0.049 | [6] 0.094 | quisinostat -0.489 | [3] 0.128 | [4] 0.061 | [5] -0.235

UTP23 (UniProt Q9BRU9)
inactive: dasatinib 0.084 | [6] 0.07 | quisinostat -0.078 | [3] 0.041 | [4] 0.02 | [5] 0.112

VCPKMT (UniProt Q9H867)
inactive: quisinostat -0.063 | [3] 0.07 | [5] -0.177

UQCC3 (UniProt Q6UW78)
inactive: dasatinib 0.145 | [6] -0.011 | [4] -0.104 | [5] -0.182

VGF (UniProt O15240)
inactive: dasatinib 0.04 | [6] -0.188 | [5] -0.242

Looked up one by one from above, 2 records:
UQCC3 (UniProt Q6UW78)
inactive: dasatinib 0.145 | [6] -0.011 | [4] -0.104 | [5] -0.182

VCPKMT (UniProt Q9H867)
inactive: quisinostat -0.063 | [3] 0.07 | [5] -0.177

(next part)

USP15 isoform 3 (UniProt Q9Y4E8)
inactive: dasatinib -0.014 | [6] -0.006 | quisinostat -0.007 | [3] -0.053 | [4] 0.007

UTRN isoform 2 (UniProt P46939)
inactive: [5] 0.21

UNKL (UniProt E9PDK2)
inactive: dasatinib -0.216 | [6] 0.006 | quisinostat 0.015 | [3] 0.045

USP20 (UniProt Q9Y2K6)
inactive: dasatinib 0 | [6] -0.016 | quisinostat -0.103 | [3] 0.225 | [5] 0.073

USP7 (UniProt H3BND8)
inactive: nilotinib -0.121 | [1] 0.508 | [2] 0.232 | tipifarnib -0.082 | [4] 0.207

UHRF2 (UniProt Q96PU4)
inactive: quisinostat 0.039 | [3] -0.033

USF3 (UniProt Q68DE3)
inactive: [4] 0.102 | [5] -0.082

USP54 (UniProt Q70EL1)
inactive: quisinostat 0.003 | [3] 0.08

USP27X (UniProt A6NNY8)
inactive: quisinostat -0.269 | [3] 0.124

USP19 isoform 4 (UniProt O94966)
inactive: dasatinib -0.104 | [6] 0.04 | [4] 0.135 | [5] -0.007

UNG (UniProt P13051)
inactive: dasatinib -0.021 | [6] 0.069 | [5] 0.076
